In article PMC4561349:
No constants are given. Whether binding was seen depends on the method and setting. Binding seen in cells or lysates may run through a third protein. Some entries that bind do so weakly or less than the wild type.

Target: T1, AKINβ2, subunit of the Arabidopsis SnRK kinase (Arabidopsis) (UniProt Q9SCY5)
T1 sequence: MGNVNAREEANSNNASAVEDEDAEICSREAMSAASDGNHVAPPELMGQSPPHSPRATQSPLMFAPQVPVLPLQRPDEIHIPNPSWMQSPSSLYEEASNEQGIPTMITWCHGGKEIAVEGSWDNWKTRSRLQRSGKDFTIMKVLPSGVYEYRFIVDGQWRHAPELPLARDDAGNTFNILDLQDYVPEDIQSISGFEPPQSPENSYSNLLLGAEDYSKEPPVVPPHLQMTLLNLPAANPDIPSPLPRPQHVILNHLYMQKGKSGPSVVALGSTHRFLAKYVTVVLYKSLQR
Assay: split reporter; BiFC with pYFN43 and pYFC43 fusions co-infiltrated (Agrobacterium GV3101/pMP90, with p19) into N. benthamiana leaves; confocal microscopy 3 days post-infiltration, nuclei stained with DAPI

binding: binds
B1: AKIN10, subunit of the Arabidopsis SnRK kinase (enzyme, UniProt Q38997 1-512)
chain: MDGSGTGSRSGVESILPNYKLGRTLGIGSFGRVKIAEHALTGHKVAIKILNRRKIKNMEMEEKVRREIKILRLFMHPHIIRLYEVIETPTDIYLVMEYVNSGELFDYIVEKGRLQEDEARNFFQQIISGVEYCHRNMVVHRDLKPENLLLDSKCNVKIADFGLSNIMRDGHFLKTSCGSPNYAAPEVISGKLYAGPEVDVWSCGVILYALLCGTLPFDDENIPNLFKKIKGGIYTLPSHLSPGARDLIPRMLVVDPMKRVTIPEIRQHPWFQAHLPRYLAVPPPDTVQQAKKIDEEILQEVINMGFDRNHLIESLRNRTQNDGTVTYYLILDNRFRASSGYLGAEFQETMEGTPRMHPAESVASPVSHRLPGLMEYQGVGLRSQYPVERKWALGLQSRAHPREIMTEVLKALQDLNVCWKKIGHYNMKCRWVPNSSADGMLSNSMHDNNYFGDESSIIENEAAVKSPNVVKFEIQLYKTRDDKYLLDLQRVQGPQFLFLDLCAAFLAQLRVL
